Test results as given in PMC5617467.
Results are given in words; binding and its absence hold for the method and conditions named. In cells and extracts the contact can be indirect. Some results given as binding are weak or reduced against the parent protein; the word gives no strength.

Chains of the proteins cited; added tags and fusions are not shown.
UniProt Q96JN8: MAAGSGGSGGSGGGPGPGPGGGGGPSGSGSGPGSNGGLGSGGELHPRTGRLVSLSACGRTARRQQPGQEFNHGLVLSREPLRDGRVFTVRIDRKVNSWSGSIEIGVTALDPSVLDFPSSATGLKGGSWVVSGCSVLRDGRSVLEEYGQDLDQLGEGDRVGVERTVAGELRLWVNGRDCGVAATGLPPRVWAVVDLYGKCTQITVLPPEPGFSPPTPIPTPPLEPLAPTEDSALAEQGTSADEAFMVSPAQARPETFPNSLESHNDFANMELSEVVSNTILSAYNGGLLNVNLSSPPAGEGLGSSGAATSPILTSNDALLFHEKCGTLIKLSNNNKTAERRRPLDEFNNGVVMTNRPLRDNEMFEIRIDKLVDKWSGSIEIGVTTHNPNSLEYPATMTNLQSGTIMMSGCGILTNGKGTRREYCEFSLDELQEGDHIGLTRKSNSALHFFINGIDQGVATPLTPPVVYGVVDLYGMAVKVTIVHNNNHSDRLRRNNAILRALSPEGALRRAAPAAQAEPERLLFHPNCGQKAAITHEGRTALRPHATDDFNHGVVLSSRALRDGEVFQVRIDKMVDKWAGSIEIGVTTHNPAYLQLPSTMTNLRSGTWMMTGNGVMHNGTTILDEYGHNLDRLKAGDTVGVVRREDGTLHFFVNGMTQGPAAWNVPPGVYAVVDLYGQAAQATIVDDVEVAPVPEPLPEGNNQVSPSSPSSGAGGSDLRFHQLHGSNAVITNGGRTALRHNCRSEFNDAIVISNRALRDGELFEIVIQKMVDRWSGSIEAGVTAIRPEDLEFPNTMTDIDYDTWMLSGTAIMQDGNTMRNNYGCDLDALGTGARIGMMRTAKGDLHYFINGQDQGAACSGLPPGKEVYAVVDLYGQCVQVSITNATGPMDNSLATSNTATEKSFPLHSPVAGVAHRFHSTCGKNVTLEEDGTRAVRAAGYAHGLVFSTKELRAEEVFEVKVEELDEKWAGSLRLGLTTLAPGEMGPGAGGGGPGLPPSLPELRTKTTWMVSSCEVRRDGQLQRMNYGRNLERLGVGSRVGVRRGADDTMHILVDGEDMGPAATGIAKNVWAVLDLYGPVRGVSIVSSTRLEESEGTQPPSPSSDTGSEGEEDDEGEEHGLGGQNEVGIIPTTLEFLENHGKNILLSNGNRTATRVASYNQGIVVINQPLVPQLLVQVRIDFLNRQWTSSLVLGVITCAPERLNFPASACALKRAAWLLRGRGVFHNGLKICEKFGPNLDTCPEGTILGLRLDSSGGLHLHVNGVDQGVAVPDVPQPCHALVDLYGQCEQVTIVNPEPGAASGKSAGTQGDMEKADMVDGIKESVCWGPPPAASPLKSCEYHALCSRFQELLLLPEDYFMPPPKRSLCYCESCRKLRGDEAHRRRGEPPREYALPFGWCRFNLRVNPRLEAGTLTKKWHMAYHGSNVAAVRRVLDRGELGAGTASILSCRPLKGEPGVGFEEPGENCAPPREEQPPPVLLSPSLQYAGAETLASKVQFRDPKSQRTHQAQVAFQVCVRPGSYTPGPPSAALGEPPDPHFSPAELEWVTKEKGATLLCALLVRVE
UniProt O95714: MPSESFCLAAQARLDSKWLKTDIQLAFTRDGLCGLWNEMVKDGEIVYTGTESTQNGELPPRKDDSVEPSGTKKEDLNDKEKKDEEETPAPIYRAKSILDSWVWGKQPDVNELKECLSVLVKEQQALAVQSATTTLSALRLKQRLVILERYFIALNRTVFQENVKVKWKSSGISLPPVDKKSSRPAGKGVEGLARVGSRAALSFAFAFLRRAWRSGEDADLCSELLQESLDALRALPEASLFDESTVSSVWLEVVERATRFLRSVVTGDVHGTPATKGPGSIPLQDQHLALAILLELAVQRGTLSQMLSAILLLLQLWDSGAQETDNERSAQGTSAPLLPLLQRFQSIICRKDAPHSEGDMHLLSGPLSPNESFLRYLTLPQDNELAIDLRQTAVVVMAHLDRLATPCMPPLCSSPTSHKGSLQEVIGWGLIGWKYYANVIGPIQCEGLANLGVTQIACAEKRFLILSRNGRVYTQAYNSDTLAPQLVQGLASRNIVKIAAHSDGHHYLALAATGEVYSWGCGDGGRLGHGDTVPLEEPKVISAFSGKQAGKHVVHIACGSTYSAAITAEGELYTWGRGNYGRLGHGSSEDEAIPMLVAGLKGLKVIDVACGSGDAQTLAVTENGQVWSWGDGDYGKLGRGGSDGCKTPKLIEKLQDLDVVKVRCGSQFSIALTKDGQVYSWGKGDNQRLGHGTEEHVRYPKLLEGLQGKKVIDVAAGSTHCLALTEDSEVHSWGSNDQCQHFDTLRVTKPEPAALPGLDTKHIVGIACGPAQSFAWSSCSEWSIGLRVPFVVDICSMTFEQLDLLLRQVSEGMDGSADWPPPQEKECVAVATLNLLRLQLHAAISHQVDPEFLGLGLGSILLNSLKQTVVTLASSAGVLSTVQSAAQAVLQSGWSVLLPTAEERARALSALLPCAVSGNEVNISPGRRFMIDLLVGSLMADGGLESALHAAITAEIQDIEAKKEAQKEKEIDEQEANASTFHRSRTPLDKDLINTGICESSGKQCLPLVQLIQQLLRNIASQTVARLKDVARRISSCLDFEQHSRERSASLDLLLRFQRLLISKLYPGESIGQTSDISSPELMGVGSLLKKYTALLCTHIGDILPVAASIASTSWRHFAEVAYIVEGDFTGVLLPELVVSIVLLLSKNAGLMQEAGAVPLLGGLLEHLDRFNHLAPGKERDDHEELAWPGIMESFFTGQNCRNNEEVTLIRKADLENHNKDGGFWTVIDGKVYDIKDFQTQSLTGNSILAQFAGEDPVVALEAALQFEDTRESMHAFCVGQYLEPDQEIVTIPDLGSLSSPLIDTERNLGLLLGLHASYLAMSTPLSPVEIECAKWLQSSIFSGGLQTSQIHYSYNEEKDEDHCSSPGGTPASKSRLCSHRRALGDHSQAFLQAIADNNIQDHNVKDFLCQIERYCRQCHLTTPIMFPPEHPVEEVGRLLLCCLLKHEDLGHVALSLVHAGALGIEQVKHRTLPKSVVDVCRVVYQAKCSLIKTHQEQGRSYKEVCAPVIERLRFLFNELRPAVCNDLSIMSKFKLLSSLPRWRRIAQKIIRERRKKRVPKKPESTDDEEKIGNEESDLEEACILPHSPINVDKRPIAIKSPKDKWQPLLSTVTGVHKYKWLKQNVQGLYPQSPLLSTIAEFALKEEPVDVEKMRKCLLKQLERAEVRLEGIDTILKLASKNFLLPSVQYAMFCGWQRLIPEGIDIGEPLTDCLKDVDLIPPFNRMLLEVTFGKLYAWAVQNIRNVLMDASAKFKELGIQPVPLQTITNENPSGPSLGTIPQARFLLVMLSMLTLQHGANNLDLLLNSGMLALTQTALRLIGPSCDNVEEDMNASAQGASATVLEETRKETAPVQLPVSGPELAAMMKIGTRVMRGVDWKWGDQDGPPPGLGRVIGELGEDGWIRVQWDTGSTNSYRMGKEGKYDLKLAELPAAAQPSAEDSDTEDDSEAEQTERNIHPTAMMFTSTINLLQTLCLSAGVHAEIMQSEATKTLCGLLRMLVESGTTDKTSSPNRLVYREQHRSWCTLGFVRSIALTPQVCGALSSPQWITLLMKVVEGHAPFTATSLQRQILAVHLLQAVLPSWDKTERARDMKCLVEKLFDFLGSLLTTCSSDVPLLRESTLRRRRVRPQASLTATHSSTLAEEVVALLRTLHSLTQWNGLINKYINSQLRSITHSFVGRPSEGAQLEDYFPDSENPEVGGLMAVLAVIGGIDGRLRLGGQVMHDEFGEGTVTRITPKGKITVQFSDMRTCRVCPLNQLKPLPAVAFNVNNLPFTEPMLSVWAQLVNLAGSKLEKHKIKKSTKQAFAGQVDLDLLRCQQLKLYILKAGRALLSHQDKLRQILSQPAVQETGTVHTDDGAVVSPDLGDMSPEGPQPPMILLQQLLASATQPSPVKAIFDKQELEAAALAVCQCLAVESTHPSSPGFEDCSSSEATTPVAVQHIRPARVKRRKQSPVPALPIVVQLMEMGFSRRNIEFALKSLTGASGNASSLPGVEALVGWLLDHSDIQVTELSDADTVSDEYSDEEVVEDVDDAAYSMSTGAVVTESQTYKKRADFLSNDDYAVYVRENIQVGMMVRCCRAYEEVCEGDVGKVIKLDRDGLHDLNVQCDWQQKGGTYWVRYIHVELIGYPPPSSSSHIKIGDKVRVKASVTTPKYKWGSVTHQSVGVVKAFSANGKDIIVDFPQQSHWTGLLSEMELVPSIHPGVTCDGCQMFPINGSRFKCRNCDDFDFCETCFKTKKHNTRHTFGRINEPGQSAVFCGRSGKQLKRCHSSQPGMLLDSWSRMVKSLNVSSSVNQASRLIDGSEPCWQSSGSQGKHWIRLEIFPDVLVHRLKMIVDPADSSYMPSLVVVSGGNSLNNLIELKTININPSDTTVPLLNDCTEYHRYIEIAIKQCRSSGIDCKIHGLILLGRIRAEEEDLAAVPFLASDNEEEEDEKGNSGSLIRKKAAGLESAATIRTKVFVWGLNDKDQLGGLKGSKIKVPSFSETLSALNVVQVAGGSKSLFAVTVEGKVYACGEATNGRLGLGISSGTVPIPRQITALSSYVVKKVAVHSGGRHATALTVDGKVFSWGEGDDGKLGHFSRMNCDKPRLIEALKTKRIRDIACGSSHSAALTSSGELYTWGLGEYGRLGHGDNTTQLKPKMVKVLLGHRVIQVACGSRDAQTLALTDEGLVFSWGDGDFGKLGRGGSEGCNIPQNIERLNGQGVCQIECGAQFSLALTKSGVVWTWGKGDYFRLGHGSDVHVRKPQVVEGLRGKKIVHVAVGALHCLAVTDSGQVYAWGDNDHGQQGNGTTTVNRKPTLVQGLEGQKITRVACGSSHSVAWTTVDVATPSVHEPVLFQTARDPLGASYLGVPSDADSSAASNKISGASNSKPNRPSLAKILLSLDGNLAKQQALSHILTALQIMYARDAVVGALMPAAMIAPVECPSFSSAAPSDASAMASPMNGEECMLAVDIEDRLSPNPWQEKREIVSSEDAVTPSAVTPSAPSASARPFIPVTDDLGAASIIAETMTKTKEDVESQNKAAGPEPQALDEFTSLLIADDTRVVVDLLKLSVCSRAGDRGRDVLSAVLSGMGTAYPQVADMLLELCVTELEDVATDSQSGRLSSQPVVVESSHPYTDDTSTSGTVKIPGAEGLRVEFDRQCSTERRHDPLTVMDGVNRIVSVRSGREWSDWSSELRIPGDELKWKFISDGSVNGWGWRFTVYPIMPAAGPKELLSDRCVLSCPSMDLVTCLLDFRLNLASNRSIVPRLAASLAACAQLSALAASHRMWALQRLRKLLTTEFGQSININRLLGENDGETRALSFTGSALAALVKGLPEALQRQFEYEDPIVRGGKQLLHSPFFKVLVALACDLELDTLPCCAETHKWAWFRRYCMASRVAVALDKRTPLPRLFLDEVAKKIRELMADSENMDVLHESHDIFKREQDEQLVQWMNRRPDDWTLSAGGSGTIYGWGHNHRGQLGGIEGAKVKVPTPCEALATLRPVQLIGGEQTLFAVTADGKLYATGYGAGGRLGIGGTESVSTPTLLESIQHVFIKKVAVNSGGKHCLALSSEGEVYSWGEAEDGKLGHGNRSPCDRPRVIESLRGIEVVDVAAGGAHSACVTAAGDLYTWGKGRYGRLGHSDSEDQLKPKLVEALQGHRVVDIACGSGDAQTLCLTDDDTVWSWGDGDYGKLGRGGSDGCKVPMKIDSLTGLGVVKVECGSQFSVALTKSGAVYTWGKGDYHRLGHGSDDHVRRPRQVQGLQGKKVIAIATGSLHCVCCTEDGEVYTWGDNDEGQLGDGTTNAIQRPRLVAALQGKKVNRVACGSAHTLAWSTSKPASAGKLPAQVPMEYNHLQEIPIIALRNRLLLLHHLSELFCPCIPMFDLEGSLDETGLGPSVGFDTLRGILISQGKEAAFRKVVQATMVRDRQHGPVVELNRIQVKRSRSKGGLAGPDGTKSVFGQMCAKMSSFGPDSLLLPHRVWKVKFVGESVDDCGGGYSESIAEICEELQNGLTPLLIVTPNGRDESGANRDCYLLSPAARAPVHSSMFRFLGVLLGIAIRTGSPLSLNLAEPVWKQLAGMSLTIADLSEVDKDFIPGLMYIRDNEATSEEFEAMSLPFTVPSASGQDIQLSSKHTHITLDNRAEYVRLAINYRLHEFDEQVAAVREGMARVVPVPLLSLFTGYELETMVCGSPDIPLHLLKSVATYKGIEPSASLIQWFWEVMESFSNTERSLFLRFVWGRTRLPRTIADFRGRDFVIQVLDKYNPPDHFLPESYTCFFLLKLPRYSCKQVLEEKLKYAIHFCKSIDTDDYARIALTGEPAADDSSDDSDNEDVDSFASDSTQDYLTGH

Experiments:
[1] = target: GFP-NEURL4 fusion protein (UniProt Q96JN8); test: pull-down; lysates of transfected H1299 cells (GFP-NEURL4 with GST-p53 constructs) incubated with GFP-Trap beads overnight at 4 °C, washed five times with NP40 buffer, immunoblot; also after NT or HERC2 siRNA (72 h)
[2] = target: E3 ubiquitin ligase HERC2 (endogenous) (human (endogenous in HEK-293T, U2OS, H1299)) (UniProt O95714); test: co-IP; lysates (NP40 buffer) of HEK-293T cells immunoprecipitated with anti-HERC2 polyclonal antibody Bvg1 (against residues 4785-4834, carboxyl terminus), protein A-Sepharose, 4 °C, immunoblot
[3] = target: E3 ubiquitin ligase HERC2 (endogenous) (human (endogenous in HEK-293T, U2OS, H1299)) (UniProt O95714); test: co-IP; lysates (NP40 buffer) of HEK-293T, U2OS and H1299 cells immunoprecipitated with anti-HERC2 polyclonal antibody Bvg9 (against residues 1-199), protein A-Sepharose, 4 °C, immunoblot; preimmune serum as control; also in U2OS after NT or NEURL4 siRNA (72 h); the antibody used in H1299 is not named

Row | binding [1] | binding [2] | binding [3] | Substance
1 | binds |  |  | E3 ubiquitin ligase HERC2 (endogenous) (from UniProt O95714 1-4834)
2 |  | binds | binds | NEURL4 (endogenous), adaptor-like protein with six neuralized domains (from UniProt Q96JN8 1-1562)
